Experimental data: PubChem BioAssay AID1508597 (Cure First, 2020)

- Aim: 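Survival screen with siRNA in ovarian cancer cells derived from patients, with or without rucaparib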 (primary screen)
- Cells: human ovarian carcinoma lines grown from tumours: OCI-P5x (papillary serous) and OCI-C5x (clear cell)
- Reagents: siRNA pool against human genes, 1.25 pmol siRNA per well
- Timing: 72 h or 96 h, depending on the cell culture
- Treatment: rucaparib 20 µM (about IC30) or vehicle, present until read-out
- Rucaparib or vehicle: Vehicle
- Cell line: OCI-P5x (serous)
- Detection: 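ATP luminescence measured at 72 or 96 h according to the culture, then normalised and expressed as percent viability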
- Reading the numbers: viability, normalised: higher = more viable cells remaining
- Call rule: 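Active when normalised viability falls below 80 percent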
- Calls: active = viability under 80%; inactive = viability 80% or more
Shown is a random part of the about 2,100 reagents, in one setting of the screen. 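Calls flag viability under 80% in either arm, not effects specific to rucaparib; the reference for percent is not stated.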 Unmarked entries are inactive. Some reagents were tested in more than one well and are listed for each. No sequences are given here. Not given: the 100% reference.

Target gene | technical replicate | viability, normalised (%)
NKX2-3 | 1 | 42.5 (active)
NKX2-3 | 2 | 38.2 (active)
NKX2-3 | 3 | 55.2 (active)
GALK1 | 1 | 63.4 (active)
GALK1 | 2 | 65.3 (active)
GALK1 | 3 | 76 (active)
UBE2A | 1 | 68.4 (active)
UBE2A | 2 | 56.3 (active)
UBE2A | 3 | 63.3 (active)
GINS1 | 1 | 54.1 (active)
GINS1 | 2 | 64.9 (active)
GINS1 | 3 | 68.7 (active)
INO80 | 1 | 60.6 (active)
INO80 | 2 | 57.1 (active)
INO80 | 3 | 79.4 (active)
PFKFB4 | 1 | 84
PFKFB4 | 2 | 82.3
PFKFB4 | 3 | 96.3
HKDC1 | 1 | 60.3 (active)
HKDC1 | 2 | 58.7 (active)
HKDC1 | 3 | 58.9 (active)
EDC4 | 1 | 75.7 (active)
EDC4 | 2 | 80.1
EDC4 | 3 | 80.7
UHMK1 | 1 | 83.8
UHMK1 | 2 | 76.8 (active)
UHMK1 | 3 | 87.3
DAPK3 | 1 | 82.9
DAPK3 | 1 | 54.2 (active)
DAPK3 | 2 | 79.6 (active)
DAPK3 | 2 | 62.9 (active)
DAPK3 | 3 | 79.2 (active)
DAPK3 | 3 | 59 (active)
ACTB | 1 | 41.9 (active)
ACTB | 2 | 64.5 (active)
ACTB | 3 | 68.5 (active)
TADA2A | 1 | 92.7
TADA2A | 2 | 86.1
TADA2A | 3 | 89.2

4 entries from above, set out differently:
| Target gene | technical replicate | viability, normalised (%) |
| --- | --- | --- |
| EDC4 | 2 | 80.1 |
| EDC4 | 3 | 80.7 |
| UHMK1 | 1 | 83.8 |
| UHMK1 | 2 | 76.8 (active) |
